Experiment [1] has as its target 3 × Flag::PilG fusion protein (Xanthomonas campestris pv. campestris strain 8004). The experiment is described as follows: affinity purification with mass spectrometry; 3 × Flag-tagged PilG or PilH precipitated with ANTI-FLAG agarose from Xcc lysate (25 mM Tris-HCl pH 7.4, 100 mM NaCl, 1 mM EDTA, 1% NP-40, 10% glycerine), 4 °C, 3 h; eluted with 0.25 M glycine pH 2.5; done twice, results of the untagged control strain removed.

Experiment [2] addresses 3 × Flag::PilH fusion protein (Xanthomonas campestris pv. campestris strain 8004). The experiment is described as above.

No constants are given. Whether binding was seen depends on the method and setting. In cells and extracts the contact can be indirect. These calls come from enrichment with a bait or labelling near it, and not all partners need be listed.

B1: PilU (XC_1359) (protein, UniProt Q8P759 1-376)
chain: MSTIDFTSFLKLMAHQKASDLFITSGMPPAIKVHGKISPITQTPLTAQQSRDLVLNVMTPSQREEFEKTHECNFAIGVSGVGRFRVSCFYQRNQVGMVLRRIETRIPTVEELSLPPVIKTLAMTKRGIIIFVGATGTGKSTSLAAMIGYRNQNSTGHIITIEDPIEFVHKHEGCIITQREVGIDTDSWENALKNTLRQAPDVIMIGEVRTREGMDHAIAFAETGHLVLCTLHANNANQAMDRIINFFPEDRRNQLLMDLSLNLKGVVAQQLIPTPDGRGRRVAMEIMLGTPLVQDYIRDGEIHKLKEIMKESTNLGMRTFDQSLFELYQAGEISYEDALRYADSQNEVRLRIKLSQGGDAKTLSQGLDGVEIAEVR
Consider B1, for which the binding entry in experiment [1] is on record as “binds”.

B2: PhoP (XC_4031) (protein, UniProt Q7CLM6 1-227)
chain: MRILLVEDEAPLRETLAARLKREGFAVDAAQDGEEGLYMGREVPFDVGIIDLGLPKMSGMELIKALRDEGKKFPVLILTARSSWQDKVEGLKQGADDYLVKPFHVEELLARVNALLRRAAGWSKPTLECGPVALDLAAQTVSVNGANVDLTSYEYKVLEYLMMHAGELVSKADLTEHIYQQDFDRDSNVLEVFIGRLRKKLDPDGELKPIETVRGRGYRFAIPRTEG
On to B2, for which, in experiment [2], the binding entry was “binds”.
